# Source: patent US20030157096A1
# These are yes or no findings as the source states them, for the method shown. Some entries that bind do so weakly or less than the wild type.
# B1: biotinylated human IL-TIF-CEE (ligand)
# chain: APISSHCRLDKSNFQQPYITNRTFMLAKEASLADNNTDVRLIGEKLFHGVSMSERCYLMKQVLNFTLEEVLFPQSDRFQPYMQEVVPFLARLSNRLSTCHIEGDDLHIQRNVQKLKDTVKKLGESGEIKAIGELDLLFMSLRNACIEYMPME
# modifications: biotinylated with EZ-link Sulfo-NHS-LC-biotin (sites not given)
# Biological target: T1, zcytor11 and pDIRS1 receptors co-expressed on transfected BaF3 or BHK cells (human) (UniProt Q6UXL0)
# T1 sequence 1: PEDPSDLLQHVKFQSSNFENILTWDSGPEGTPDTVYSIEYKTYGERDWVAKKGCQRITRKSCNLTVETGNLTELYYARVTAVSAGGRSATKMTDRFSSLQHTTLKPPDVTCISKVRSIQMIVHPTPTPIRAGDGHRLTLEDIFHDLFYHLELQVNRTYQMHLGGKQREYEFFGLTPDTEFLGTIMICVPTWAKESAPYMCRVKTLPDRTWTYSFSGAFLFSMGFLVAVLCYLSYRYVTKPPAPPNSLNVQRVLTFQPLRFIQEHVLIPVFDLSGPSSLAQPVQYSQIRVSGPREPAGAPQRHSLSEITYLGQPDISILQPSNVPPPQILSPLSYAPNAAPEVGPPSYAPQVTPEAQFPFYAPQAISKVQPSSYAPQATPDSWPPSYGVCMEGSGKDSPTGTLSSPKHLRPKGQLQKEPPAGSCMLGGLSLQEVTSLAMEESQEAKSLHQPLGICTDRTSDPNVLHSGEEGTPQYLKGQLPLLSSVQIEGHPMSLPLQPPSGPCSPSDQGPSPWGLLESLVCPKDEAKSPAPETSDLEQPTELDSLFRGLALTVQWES
# T1 sequence 2: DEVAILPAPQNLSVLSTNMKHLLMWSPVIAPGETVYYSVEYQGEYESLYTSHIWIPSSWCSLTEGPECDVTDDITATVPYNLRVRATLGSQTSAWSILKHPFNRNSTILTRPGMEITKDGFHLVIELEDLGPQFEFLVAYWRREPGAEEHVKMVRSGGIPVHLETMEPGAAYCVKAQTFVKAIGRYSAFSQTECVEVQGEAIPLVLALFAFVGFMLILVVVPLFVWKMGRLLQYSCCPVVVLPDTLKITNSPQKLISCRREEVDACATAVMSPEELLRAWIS
# Assay: flow cytometry, biotinylated IL-TIF-CEE at 10 or 1 µg/ml plus PE-streptavidin on BaF3 transfectants (same results stated for BHK transfectants)
binder,measurement,value
B1,binding,binds
